From publication PMC4414150, “Zfra activates memory Hyal-2+ CD3− CD19− spleen cells to block cancer growth, stemness, and metastasis in vivo” (Oncotarget, 2015)
Results are given in words; binding and its absence hold for the method and conditions named. For some assays here: In cells and extracts the contact can be indirect. Some entries that bind do so weakly or less than the wild type.

Tests used:
[1] = target: T1, Zfra1–31 (zinc finger-like protein that regulates apoptosis), synthetic full-length peptide; test: SDS-PAGE of the incubated peptide (ladder of polymers); Zfra1–31 2 mM in degassed PBS, room temperature, 16–24 hr; reducing SDS-PAGE, Coomassie blue and silver stain; both purified
T1 sequence (peptide): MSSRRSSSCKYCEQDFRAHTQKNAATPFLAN

Zfra1–15 = test: SDS-PAGE of the incubated peptide (ladder of polymers); peptides alone (2 mM in 100 μl PBS) or mixed together, room temperature, 24 hr (legend; the text says sterile MilliQ water, 48 hr); non-reducing and reducing gels; less polymerization in MilliQ water; both purified
Zfra16–31 [2] = target: T2, Zfra16–31; test: SDS-PAGE of the incubated peptide (ladder of polymers); peptide 2 mM in PBS, room temperature, 24 hr; much less effective in water; both purified
T2 construct: Zfra, residues 16-31; also called Zfra peptide of amino acid #16–31; source: synthetic peptide (manual synthesis, Genemed Synthesis)
T2 peptide: FRAHTQKNAATPFLAN

Zfra16–31 [3] = target: T2, Zfra16–31; test: SDS-PAGE of the incubated peptide (ladder of polymers); peptides alone (2 mM in 100 μl PBS) or mixed together, room temperature, 24 hr (legend; the text says sterile MilliQ water, 48 hr); non-reducing and reducing gels; less polymerization in MilliQ water; both purified
[4] = target: T1, Zfra1–31 (zinc finger-like protein that regulates apoptosis), synthetic full-length peptide; test: co-sedimentation; Zfra1–31 (100 μM) added to whole lysates of L929 fibroblasts treated with or without UV; room temperature 30 min; centrifugation at 13,000 rpm for 15 min; precipitates analysed by Western blotting; only the target purified

In the case of MSSRRSSSCKYCEQDFRAHTQKNAATPFLAN [Zfra1–31 (zinc finger-like protein that regulates apoptosis), synthetic full-length peptide], the binding [1] is reported as “binds”.

B1: Zfra1–15 (peptide)
peptide: MSSRRSSSCKYCEQD
notes: Zfra, residues 1-15; also called Zfra peptide of amino acid #1–15; source: synthetic peptide (manual synthesis, Genemed Synthesis)
For B1, the binding (Zfra1–15) was “binds weakly”.

In the case of FRAHTQKNAATPFLAN [Zfra16–31], the binding (Zfra16–31 [2]) is reported as “binds weakly” and the binding (Zfra16–31 [3]) is reported as “binds weakly”.

B2: endogenous Hyal-2 (hyaluronidase Hyal-2) of L929 fibroblasts (protein, UniProt O35632 21-448)
chain: GELKPTAPPIFTGRPFVVAWNVPTQECAPRHKVPLDLRAFDVKATPNEGFFNQNITTFYYDRLGLYPRFDAAGTSVHGGVPQNGSLCAHLPMLKESVERYIQTQEPGGLAVIDWEEWRPVWVRNWQEKDVYRQSSRQLVASRHPDWPSDRVMKQAQYEFEFAARQFMLNTLRYVKAVRPQHLWGFYLFPDCYNHDYVQNWESYTGRCPDVEVARNDQLAWLWAESTALFPSVYLDETLASSVHSRNFVSFRVREALRVAHTHHANHALPVYVFTRPTYTRGLTGLSQVDLISTIGESAALGSAGVIFWGDSEDASSMETCQYLKNYLTQLLVPYIVNVSWATQYCSWTQCHGHGRCVRRNPSANTFLHLNASSFRLVPGHTPSEPQLRPEGQLSEADLNYLQKHFRCQCYLGWGGEQCQRNYKGAAGN
B2 was tested, and the binding [4] was “binds”.
